Source: US20240327530A1
Results are given in words; binding and its absence hold for the method and conditions named. Some binding calls cover weakened binding; strength is not graded here.

By UniProt entry, the sequences of proteins in these tests, tags left out. Where a name states a change or a piece, a line headed by the entry shows the natural chain unless it says otherwise.
UniProt Q9NPH3: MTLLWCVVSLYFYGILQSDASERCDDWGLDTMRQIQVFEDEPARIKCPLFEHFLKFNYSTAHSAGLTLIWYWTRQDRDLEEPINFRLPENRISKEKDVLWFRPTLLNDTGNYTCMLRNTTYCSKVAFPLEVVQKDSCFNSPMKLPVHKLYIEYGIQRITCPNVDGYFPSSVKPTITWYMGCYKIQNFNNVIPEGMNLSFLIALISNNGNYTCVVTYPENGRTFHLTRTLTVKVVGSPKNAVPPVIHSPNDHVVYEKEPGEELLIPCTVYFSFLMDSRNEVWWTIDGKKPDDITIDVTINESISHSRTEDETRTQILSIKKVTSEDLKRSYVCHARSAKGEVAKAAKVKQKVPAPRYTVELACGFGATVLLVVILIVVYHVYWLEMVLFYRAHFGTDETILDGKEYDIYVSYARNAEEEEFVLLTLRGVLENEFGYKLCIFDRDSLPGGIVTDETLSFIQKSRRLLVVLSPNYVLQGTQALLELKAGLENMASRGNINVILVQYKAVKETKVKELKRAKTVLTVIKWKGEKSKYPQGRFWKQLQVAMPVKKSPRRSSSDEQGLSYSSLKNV
UniProt P14778: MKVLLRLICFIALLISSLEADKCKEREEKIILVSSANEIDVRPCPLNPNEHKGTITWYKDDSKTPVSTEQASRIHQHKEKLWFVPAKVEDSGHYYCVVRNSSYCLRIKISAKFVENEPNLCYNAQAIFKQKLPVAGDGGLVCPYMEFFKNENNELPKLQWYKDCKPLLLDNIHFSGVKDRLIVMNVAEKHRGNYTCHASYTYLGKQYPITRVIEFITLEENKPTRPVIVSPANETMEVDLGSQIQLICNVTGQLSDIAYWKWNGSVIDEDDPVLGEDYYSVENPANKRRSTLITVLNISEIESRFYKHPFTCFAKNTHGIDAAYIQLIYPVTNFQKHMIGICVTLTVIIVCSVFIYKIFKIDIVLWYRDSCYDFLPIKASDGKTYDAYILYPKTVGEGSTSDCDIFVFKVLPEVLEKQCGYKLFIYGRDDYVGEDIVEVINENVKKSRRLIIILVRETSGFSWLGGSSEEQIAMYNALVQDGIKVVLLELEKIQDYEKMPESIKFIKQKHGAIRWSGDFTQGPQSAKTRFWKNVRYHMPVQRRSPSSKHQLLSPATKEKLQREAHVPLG

Target: Recombinant human IL-1RAP Fc fusion protein (Acrobiosystems, catalog no. ILP-H5256) (human) (UniProt Q9NPH3)
Assay: SPR, second injection of premixed IL-1R1 50 nM + IL-1β 100 nM + Fab 300 nM over captured human IL-1RAP Fc saturated with the non-blocking anti-IL-1RAP-E1 Fab

IL-1R1/IL-1β receptor/cytokine complex (from UniProt P14778 18-332; P01584 117-269)
binding: binds
